# Source: the supplement of paper PMC10849652
# Chains of the proteins cited; added tags and fusions are not shown. Lines headed by an entry give the natural chain unless they say otherwise; changes in a name come on top.
# UniProt Q9UHA4, whole entry, looked up: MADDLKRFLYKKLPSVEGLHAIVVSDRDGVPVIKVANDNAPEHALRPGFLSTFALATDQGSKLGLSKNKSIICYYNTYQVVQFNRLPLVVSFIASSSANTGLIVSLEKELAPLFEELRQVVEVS
# UniProt Q9Y664: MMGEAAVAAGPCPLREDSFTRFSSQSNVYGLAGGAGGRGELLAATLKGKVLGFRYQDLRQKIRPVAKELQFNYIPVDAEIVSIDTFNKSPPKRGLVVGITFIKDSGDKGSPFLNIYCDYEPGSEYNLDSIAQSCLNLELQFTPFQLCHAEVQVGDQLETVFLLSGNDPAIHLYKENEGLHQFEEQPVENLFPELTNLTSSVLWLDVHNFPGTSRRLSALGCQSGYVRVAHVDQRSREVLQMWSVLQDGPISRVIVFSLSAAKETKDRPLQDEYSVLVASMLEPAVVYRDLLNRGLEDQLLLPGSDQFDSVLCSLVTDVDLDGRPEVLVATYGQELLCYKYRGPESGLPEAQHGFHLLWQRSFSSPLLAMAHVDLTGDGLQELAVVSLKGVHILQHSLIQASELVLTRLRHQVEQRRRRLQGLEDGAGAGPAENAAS
# UniProt O00629, whole entry, looked up: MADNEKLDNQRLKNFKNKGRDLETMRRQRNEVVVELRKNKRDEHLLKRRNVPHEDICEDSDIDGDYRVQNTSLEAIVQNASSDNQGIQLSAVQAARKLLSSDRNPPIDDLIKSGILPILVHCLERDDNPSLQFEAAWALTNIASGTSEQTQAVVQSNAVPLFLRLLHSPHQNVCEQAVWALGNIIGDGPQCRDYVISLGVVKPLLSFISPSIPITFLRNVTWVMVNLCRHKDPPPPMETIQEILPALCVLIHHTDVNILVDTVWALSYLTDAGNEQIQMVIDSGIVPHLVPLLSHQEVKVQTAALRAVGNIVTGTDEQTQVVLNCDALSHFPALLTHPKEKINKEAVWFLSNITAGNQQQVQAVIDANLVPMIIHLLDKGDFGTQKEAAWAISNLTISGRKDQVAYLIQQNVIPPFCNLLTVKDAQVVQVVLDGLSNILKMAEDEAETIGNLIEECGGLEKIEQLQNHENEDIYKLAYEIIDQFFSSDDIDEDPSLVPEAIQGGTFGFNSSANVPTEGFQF
# UniProt Q96A73: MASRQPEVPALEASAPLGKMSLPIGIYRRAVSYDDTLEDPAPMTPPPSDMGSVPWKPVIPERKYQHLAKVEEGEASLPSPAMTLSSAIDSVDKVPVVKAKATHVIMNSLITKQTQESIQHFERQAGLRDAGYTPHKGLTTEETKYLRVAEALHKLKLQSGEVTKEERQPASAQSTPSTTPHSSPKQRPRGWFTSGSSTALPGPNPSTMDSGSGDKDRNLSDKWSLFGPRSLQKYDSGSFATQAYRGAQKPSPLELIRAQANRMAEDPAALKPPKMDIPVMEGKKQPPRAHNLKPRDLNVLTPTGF
# UniProt P23276: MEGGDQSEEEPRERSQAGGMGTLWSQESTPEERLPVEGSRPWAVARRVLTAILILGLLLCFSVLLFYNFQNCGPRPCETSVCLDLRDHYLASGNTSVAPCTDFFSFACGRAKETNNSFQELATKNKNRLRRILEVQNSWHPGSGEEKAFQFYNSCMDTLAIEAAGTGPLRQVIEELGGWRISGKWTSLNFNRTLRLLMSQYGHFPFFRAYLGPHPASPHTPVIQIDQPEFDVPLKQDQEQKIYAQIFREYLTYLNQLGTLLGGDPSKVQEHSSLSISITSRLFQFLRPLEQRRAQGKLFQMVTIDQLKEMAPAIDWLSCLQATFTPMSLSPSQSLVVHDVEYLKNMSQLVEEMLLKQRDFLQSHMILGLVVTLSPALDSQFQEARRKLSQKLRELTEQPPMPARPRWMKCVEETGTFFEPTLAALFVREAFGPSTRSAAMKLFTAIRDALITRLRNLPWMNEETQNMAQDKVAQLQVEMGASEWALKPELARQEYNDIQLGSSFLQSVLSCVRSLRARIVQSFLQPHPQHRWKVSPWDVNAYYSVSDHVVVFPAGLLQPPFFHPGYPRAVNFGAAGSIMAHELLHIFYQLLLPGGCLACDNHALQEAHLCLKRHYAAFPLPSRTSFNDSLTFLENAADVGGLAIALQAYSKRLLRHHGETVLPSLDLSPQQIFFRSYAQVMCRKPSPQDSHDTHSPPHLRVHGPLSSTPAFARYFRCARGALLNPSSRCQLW
# UniProt Q8IXQ5, whole entry, looked up: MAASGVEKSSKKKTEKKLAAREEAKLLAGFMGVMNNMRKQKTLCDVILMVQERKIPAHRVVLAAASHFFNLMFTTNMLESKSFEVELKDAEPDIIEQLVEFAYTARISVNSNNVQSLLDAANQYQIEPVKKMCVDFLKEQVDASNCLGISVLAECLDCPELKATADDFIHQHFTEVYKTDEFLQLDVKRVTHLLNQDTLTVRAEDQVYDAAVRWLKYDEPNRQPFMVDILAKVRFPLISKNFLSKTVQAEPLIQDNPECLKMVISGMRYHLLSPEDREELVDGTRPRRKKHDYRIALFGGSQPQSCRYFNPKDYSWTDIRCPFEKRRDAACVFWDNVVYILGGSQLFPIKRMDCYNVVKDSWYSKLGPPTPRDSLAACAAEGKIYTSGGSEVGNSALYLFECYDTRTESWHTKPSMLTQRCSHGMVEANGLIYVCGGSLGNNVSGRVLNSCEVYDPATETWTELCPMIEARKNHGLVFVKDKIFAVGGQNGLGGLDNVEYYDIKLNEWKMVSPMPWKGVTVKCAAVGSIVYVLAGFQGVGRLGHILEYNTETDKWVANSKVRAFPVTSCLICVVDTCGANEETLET
# UniProt P50053: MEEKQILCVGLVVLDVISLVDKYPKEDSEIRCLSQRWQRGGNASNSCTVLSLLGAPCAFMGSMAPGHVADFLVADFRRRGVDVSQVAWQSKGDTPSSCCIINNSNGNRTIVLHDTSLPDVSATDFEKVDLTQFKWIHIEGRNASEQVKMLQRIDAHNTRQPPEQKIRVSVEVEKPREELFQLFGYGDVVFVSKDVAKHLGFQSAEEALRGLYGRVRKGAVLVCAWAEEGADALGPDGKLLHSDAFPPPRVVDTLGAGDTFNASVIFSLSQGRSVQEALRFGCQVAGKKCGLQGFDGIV
# UniProt O94889: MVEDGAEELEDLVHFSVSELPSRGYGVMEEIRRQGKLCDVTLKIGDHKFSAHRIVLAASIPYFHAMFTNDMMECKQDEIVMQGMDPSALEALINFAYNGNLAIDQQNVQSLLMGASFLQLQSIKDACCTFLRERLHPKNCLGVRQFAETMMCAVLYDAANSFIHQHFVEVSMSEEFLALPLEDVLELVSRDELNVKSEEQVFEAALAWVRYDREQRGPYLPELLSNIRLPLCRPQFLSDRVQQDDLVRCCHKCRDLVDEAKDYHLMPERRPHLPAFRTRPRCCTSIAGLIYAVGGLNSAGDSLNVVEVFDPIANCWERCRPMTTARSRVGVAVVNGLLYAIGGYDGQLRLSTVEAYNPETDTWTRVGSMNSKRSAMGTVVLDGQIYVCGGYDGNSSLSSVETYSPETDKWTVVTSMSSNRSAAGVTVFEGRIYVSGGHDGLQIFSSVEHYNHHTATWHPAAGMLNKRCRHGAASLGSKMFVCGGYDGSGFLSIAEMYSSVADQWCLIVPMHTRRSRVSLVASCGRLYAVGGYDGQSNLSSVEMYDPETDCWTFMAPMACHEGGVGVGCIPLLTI
# UniProt Q9H9P8: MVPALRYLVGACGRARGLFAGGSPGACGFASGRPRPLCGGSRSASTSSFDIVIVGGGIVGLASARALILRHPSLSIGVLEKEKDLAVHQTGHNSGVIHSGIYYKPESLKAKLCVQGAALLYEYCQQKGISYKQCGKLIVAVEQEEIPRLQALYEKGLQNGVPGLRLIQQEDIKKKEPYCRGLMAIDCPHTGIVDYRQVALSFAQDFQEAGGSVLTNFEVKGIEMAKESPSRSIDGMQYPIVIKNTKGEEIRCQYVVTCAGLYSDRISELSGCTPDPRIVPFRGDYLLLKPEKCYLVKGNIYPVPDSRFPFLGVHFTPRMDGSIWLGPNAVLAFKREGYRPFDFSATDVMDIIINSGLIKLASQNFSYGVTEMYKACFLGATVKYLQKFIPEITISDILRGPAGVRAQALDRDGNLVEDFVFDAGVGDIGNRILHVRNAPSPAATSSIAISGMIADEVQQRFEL
# UniProt O00139: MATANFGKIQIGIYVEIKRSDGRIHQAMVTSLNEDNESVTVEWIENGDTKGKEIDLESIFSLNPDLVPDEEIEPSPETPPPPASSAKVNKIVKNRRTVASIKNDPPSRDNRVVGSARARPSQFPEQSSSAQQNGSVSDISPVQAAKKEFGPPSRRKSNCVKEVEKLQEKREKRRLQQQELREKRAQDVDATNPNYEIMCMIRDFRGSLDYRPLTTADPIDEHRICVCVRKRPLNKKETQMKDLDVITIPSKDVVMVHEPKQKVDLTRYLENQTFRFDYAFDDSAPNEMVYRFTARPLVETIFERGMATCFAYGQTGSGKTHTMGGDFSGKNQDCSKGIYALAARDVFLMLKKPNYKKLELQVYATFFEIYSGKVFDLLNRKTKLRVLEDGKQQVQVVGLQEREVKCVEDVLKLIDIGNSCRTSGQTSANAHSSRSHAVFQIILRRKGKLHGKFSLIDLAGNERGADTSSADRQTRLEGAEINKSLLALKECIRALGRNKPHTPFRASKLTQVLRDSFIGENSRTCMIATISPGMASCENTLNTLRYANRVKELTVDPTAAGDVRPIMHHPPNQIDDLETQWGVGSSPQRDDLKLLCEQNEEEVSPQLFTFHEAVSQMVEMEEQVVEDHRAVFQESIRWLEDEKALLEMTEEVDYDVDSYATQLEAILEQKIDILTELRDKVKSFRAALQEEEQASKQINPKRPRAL
# UniProt Q9ULH0: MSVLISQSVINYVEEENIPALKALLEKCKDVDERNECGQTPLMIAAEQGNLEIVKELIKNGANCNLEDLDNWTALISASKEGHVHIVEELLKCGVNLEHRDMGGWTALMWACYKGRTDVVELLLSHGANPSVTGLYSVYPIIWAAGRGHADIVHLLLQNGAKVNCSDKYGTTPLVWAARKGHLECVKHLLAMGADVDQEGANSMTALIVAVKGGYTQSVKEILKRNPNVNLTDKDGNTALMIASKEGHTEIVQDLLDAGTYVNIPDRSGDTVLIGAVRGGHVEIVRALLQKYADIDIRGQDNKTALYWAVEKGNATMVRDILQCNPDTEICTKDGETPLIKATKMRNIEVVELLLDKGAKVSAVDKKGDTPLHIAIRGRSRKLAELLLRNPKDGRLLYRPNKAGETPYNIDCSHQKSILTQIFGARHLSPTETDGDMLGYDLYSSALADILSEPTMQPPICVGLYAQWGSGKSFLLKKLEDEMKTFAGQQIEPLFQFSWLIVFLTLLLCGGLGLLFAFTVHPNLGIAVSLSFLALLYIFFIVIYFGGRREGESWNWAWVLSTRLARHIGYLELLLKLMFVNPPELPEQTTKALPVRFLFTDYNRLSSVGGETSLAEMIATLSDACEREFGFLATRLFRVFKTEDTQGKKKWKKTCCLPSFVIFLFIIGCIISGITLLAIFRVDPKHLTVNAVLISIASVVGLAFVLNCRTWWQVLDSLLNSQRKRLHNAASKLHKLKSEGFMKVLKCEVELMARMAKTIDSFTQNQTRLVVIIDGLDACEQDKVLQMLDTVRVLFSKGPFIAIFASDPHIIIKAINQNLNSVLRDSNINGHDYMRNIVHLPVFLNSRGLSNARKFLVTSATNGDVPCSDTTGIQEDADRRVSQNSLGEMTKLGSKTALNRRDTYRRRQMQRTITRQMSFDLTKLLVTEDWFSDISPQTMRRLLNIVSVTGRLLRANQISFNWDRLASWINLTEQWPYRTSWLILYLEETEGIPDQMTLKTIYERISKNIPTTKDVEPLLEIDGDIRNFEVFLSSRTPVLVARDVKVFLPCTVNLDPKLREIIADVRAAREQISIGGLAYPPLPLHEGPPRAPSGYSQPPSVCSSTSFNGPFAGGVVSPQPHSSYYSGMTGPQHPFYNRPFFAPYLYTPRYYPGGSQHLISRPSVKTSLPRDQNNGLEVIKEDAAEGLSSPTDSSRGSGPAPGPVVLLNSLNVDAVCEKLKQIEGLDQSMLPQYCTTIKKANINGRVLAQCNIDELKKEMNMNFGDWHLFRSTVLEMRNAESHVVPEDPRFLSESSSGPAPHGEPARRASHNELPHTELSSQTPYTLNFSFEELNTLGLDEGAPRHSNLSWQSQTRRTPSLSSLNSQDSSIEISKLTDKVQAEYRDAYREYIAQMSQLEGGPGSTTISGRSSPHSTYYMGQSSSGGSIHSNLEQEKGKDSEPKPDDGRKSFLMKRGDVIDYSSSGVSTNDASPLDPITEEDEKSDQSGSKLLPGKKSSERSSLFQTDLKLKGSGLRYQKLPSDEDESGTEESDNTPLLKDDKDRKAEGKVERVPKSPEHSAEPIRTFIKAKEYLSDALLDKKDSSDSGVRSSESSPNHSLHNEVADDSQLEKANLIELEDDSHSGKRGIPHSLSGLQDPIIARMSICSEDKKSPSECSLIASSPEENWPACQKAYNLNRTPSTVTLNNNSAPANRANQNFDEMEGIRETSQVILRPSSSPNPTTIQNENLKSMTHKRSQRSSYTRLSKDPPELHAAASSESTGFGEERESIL
# Some of the results follow.
# How the values were obtained:
# Test in all cases: log2 fold change, soluble protein after heating vs DMSO (PISA); higher = thermal stabilisation; K562 lysate, 10 uM; active = over 0.2 and 3.5 SD of the protein, either way, in both replicates (recomputed)
# [1] = compound: Cc1cn(-c2cc(NC(=O)c3ccc(C)c(Nc4nccc(-c5cccnc5)n4)c3)cc(C(F)(F)F)c2)cn1 [nilotinib]
# Procedure, shortened: (§1)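 Soluble protein was defined as the supernatant remaining after 21,000xg for 90 min, following pooling of heated aliquots and adjustment to 0.5% NP-40 at 4°C. Before that, crude K562 extract at 1 mg/mL protein in PBS pH 7.4 with 1 mM MgCl2 was treated with 10 μM compound for 30 min and heated for 3 min across 48°C-58°C. Quantification used TMTpro 16plex LC-MS/MS with channel sums equalised, and values are log-two fold changes in thermal stability relative to solvent controls from duplicates.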
# [2] = compound: Cc1nc(Nc2n[nH]c3c2CN(C(=O)N[C@H](CN(C)C)c2ccccc2)C3(C)C)c2sccc2n1
# Procedure, shortened: as §1
# [3] = compound: Cc1nc(Nc2ncc(C(=O)Nc3c(C)cccc3Cl)s2)cc(N2CCN(CCO)CC2)n1 [dasatinib]
# Procedure, shortened: as §1
# [4] = compound: Cc1ncc(-c2ccnc(Nc3ccc(S(C)(=O)=O)cc3)n2)n1C(C)C
# Procedure, shortened: as §1
# [5] = compound: Cn1cc(-c2ccc3c(c2)CCN3C(=O)Cc2cccc(C(F)(F)F)c2)c2c(N)ncnc21
# Procedure, shortened: as §1
# [6] = compound: Cn1cc(CNCC2CCN(c3ncc(C(=O)NO)cn3)CC2)c2ccccc21 [quisinostat]
# Procedure, shortened: as §1
# [7] = compound: Cn1cncc1[C@@](N)(c1ccc(Cl)cc1)c1ccc2c(c1)c(-c1cccc(Cl)c1)cc(=O)n2C [tipifarnib]
# Procedure, shortened: as §1
# [8] = compound: NC(=O)Nc1cc(-c2cccc(F)c2)sc1C(=O)N[C@H]1CCCNC1
# Procedure, shortened: as §1
# [9] = compound: NC(=O)c1cnc(N[C@@H]2CCCC[C@@H]2N)nc1Nc1cccc(-n2nccn2)c1
# Procedure, shortened: as §1
# [10] = compound: NC1(c2ccc(-c3nc4ccn5c(=O)[nH]nc5c4cc3-c3ccccc3)cc2)CCC1
# Procedure, shortened: as §1
# [11] = compound: NCC(=O)Nc1ccc(-n2nc(C(F)(F)F)cc2-c2ccc3c(ccc4ccccc43)c2)cc1
# Procedure, shortened: as §1
# [12] = compound: O=C(CCCCCCC(=O)Nc1ccccc1)NO [vorinostat]
# Procedure, shortened: as §1
# [13] = compound: O=C(O)c1ccc2c(c1)nc(Nc1cccc(Cl)c1)c1ccncc12 [silmitasertib]
# Procedure, shortened: as §1
# [14] = compound: O=C1NC(=O)C(c2cnc3ccccn23)=C1c1cn2c3c(cc(F)cc13)CN(C(=O)N1CCCCC1)CC2
# Procedure, shortened: as §1
# [15] = compound: c1cn2cc(-c3ccc4cn[nH]c4c3)nc(Nc3ccc(N4CCOCC4)cc3)c2n1 [entospletinib]
# Procedure, shortened: as §1
Target,log2 fold change [1],log2 fold change [2],log2 fold change [3],log2 fold change [4],log2 fold change [5],log2 fold change [6],log2 fold change [7],log2 fold change [8],log2 fold change [9],log2 fold change [10],log2 fold change [11],log2 fold change [12],log2 fold change [13],log2 fold change [14],log2 fold change [15]
LAMTOR3 (UniProt Q9UHA4),inactive: 0.01,inactive: -0.014,inactive: -0.031,inactive: 0.026,inactive: 0,inactive: -0.061,inactive: 0.007,inactive: -0.023,inactive: -0.02,inactive: 0.029,inactive: 0.035,inactive: 0.123,inactive: -0.004,inactive: 0.009,inactive: -0.008
KIF3C (UniProt O14782),inactive: -0.038,inactive: -0.117,inactive: 0.026,inactive: 0.191,inactive: 0.062,inactive: -0.204,inactive: -0.187,inactive: 0.043,inactive: -0.194,inactive: 0.145,active: 1.17,inactive: -0.352,inactive: 0.249,inactive: 0.074,inactive: 0.032
KIF1B isoform 2 (UniProt O60333),inactive: -0.004,inactive: 0.012,inactive: -0.026,inactive: 0.025,inactive: 0.026,inactive: -0.03,inactive: 0.008,inactive: 0.01,inactive: 0.018,inactive: 0.019,inactive: 0.022,inactive: -0.117,inactive: 0.031,inactive: 0.008,inactive: 0.008
LAMTOR5 (UniProt O43504),inactive: 0.015,inactive: 0.013,inactive: -0.045,inactive: 0.063,inactive: -0.005,inactive: 0.046,inactive: 0.003,inactive: -0.089,inactive: -0.084,inactive: 0.088,inactive: -0.092,inactive: 0.117,inactive: -0.05,inactive: -0.158,inactive: -0.079
KPTN (UniProt Q9Y664),inactive: -0.064,inactive: -0.104,inactive: 0.016,inactive: -0.193,inactive: -0.016,inactive: -0.053,inactive: -0.03,inactive: 0.059,inactive: -0.03,inactive: -0.073,inactive: 0,inactive: -0.03,inactive: 0,inactive: 0.008,inactive: -0.008
KPNA4 (UniProt O00629),inactive: -0.013,inactive: 0.006,inactive: 0.063,inactive: 0.018,inactive: 0.003,inactive: -0.088,inactive: -0.033,inactive: -0.012,inactive: 0,inactive: -0.058,inactive: 0.006,inactive: 0.047,inactive: 0.024,inactive: 0.02,inactive: 0.021
KIAA1191 (UniProt Q96A73),inactive: 0.003,inactive: 0.025,inactive: 0.013,inactive: 0.004,inactive: 0.026,inactive: 0.012,inactive: 0.072,inactive: 0.006,inactive: 0.064,inactive: 0.003,inactive: 0.097,inactive: 0.032,inactive: -0.028,inactive: -0.012,inactive: 0.037
KRAS (UniProt P01116),inactive: 0.034,inactive: -0.014,inactive: 0.049,inactive: 0.018,inactive: -0.015,inactive: 0.042,inactive: 0.129,inactive: -0.001,inactive: 0.005,inactive: -0.032,inactive: 0.033,inactive: 0.129,inactive: 0.022,inactive: -0.072,inactive: -0.021
KEL (UniProt P23276),inactive: -0.112,inactive: -0.004,inactive: 0.015,inactive: 0.018,inactive: 0.018,inactive: -0.037,inactive: 0.101,inactive: 0.025,inactive: -0.034,inactive: 0.01,inactive: -0.046,inactive: 0.162,inactive: -0.002,inactive: 0.017,inactive: 0.015
KLHL7 (UniProt Q8IXQ5),inactive: -0.006,inactive: 0.016,inactive: -0.047,inactive: 0.102,inactive: 0.084,inactive: 0.039,inactive: 0.127,inactive: -0.013,inactive: -0.071,inactive: 0.075,inactive: -0.185,inactive: -0.14,inactive: -0.039,inactive: -0.056,inactive: -0.014
LARP4 isoform 4 (UniProt Q71RC2),inactive: -0.022,inactive: 0.008,inactive: -0.028,inactive: 0.031,inactive: 0.035,inactive: -0.021,inactive: 0.047,inactive: 0.028,inactive: 0.014,inactive: -0.007,inactive: 0.013,inactive: -0.1,inactive: 0.02,inactive: 0.035,inactive: 0.002
LAMTOR2 (UniProt Q9Y2Q5),inactive: 0.034,inactive: 0.011,inactive: 0.017,inactive: 0.112,inactive: 0.004,inactive: -0.078,inactive: 0.015,inactive: -0.024,inactive: -0.062,inactive: -0.002,inactive: -0.137,inactive: 0.157,inactive: 0.005,inactive: 0,inactive: 0.002
KHK isoform 2 (UniProt P50053),inactive: -0.004,inactive: 0.035,inactive: -0.075,inactive: -0.02,inactive: -0.035,inactive: -0.021,inactive: -0.043,inactive: -0.019,inactive: -0.018,inactive: -0.023,inactive: 0.035,inactive: 0.045,inactive: 0.018,inactive: -0.053,inactive: 0.033
KMT2C isoform 3 (UniProt Q8NEZ4),inactive: -0.09,inactive: -0.073,inactive: -0.035,inactive: 0.072,inactive: 0.044,inactive: -0.113,inactive: -0.076,inactive: 0.077,inactive: -0.015,inactive: 0.021,inactive: -0.029,inactive: 0.137,inactive: -0.037,inactive: -0.143,inactive: 0.043
KLHL12 isoform 2 (UniProt Q53G59),inactive: -0.037,inactive: -0.044,inactive: -0.056,inactive: 0.064,inactive: -0.07,inactive: 0.04,inactive: 0.015,inactive: 0.097,inactive: 0.043,inactive: 0.035,inactive: 0.135,inactive: -0.108,inactive: 0.024,inactive: 0.003,
KLHL18 (UniProt O94889),inactive: 0,inactive: -0.008,inactive: -0.026,inactive: -0.034,inactive: 0.051,inactive: -0.31,inactive: -0.015,inactive: -0.035,inactive: 0.02,inactive: 0.053,inactive: 0.027,inactive: -0.121,inactive: -0.009,inactive: -0.144,inactive: -0.051
L2HGDH (UniProt Q9H9P8),inactive: -0.004,inactive: -0.01,inactive: 0.024,inactive: 0.04,inactive: -0.034,inactive: 0.028,inactive: -0.047,inactive: 0.035,inactive: -0.006,inactive: 0.028,inactive: 0.012,inactive: 0.233,inactive: -0.019,inactive: -0.012,inactive: -0.02
KIF2A isoform 4 (UniProt O00139),inactive: 0.021,inactive: -0.015,inactive: -0.022,inactive: -0.02,inactive: 0.042,inactive: -0.005,inactive: 0.015,inactive: 0.021,inactive: 0.017,inactive: 0.006,inactive: -0.018,active: -0.518,inactive: 0.044,inactive: -0.015,inactive: -0.006
KIF2C (UniProt Q99661),inactive: 0.013,inactive: 0.009,inactive: -0.021,inactive: 0.002,inactive: 0.028,inactive: -0.068,inactive: 0.003,inactive: 0.035,inactive: -0.01,inactive: -0.005,inactive: 0.003,active: -0.464,inactive: 0.028,inactive: 0.012,inactive: 0.024
KLF16 (UniProt Q9BXK1),inactive: 0.048,inactive: -0.078,inactive: 0.009,inactive: 0.018,inactive: -0.05,inactive: -0.012,inactive: 0.037,inactive: 0.001,inactive: 0.028,inactive: 0.027,inactive: 0.169,inactive: -0.066,inactive: 0.066,inactive: -0.006,inactive: 0.055
KIDINS220 isoform 4 (UniProt Q9ULH0),inactive: -0.022,inactive: -0.004,inactive: -0.018,inactive: -0.014,inactive: 0.029,inactive: -0.041,inactive: -0.019,inactive: 0.001,inactive: 0.038,inactive: 0.055,inactive: -0.012,inactive: -0.111,inactive: 0.023,inactive: 0.031,inactive: -0.02

# Fetched one by one from above, 2 records:
Target,log2 fold change [1],log2 fold change [2],log2 fold change [3],log2 fold change [4],log2 fold change [5],log2 fold change [6],log2 fold change [7],log2 fold change [8],log2 fold change [9],log2 fold change [10],log2 fold change [11],log2 fold change [12],log2 fold change [13],log2 fold change [14],log2 fold change [15]
LAMTOR5 (UniProt O43504),inactive: 0.015,inactive: 0.013,inactive: -0.045,inactive: 0.063,inactive: -0.005,inactive: 0.046,inactive: 0.003,inactive: -0.089,inactive: -0.084,inactive: 0.088,inactive: -0.092,inactive: 0.117,inactive: -0.05,inactive: -0.158,inactive: -0.079
LAMTOR2 (UniProt Q9Y2Q5),inactive: 0.034,inactive: 0.011,inactive: 0.017,inactive: 0.112,inactive: 0.004,inactive: -0.078,inactive: 0.015,inactive: -0.024,inactive: -0.062,inactive: -0.002,inactive: -0.137,inactive: 0.157,inactive: 0.005,inactive: 0,inactive: 0.002
